From patent publication US9518283B1, “Selective enrichment media and uses thereof” (priority 2012, dated 2016)
At least one structure is not confirmed: it was looked up by name or label, or the drawing left a doubt.

Test system: non-Salmonella gram negative species
Assay: Media formulations / selective agents tested against competitor species
Type: cell-based
Protocol: Several media formulations were tested for permitting growth of Salmonella while inhibiting growth of non-Salmonella species. […] To minimize the potential of such environmental microflora to contribute to false positive reactions in selective indicator media, flavonoid compounds were investigated. Myricetin was tested as a potential suitable inhibitor for at least some of these gram negative species.

## CCN(CC)c1ccc(C(=C2C=CC(=[N+](CC)CC)C=C2)c2ccccc2)cc1 [Brilliant green]
  effect on commensal E. coli: inhibits many commensal E. coli
